{"sequences": {"note": "Sequences of proteins named here, by UniProt entry; tags and fusion partners are left off.", "UniProt P19338": "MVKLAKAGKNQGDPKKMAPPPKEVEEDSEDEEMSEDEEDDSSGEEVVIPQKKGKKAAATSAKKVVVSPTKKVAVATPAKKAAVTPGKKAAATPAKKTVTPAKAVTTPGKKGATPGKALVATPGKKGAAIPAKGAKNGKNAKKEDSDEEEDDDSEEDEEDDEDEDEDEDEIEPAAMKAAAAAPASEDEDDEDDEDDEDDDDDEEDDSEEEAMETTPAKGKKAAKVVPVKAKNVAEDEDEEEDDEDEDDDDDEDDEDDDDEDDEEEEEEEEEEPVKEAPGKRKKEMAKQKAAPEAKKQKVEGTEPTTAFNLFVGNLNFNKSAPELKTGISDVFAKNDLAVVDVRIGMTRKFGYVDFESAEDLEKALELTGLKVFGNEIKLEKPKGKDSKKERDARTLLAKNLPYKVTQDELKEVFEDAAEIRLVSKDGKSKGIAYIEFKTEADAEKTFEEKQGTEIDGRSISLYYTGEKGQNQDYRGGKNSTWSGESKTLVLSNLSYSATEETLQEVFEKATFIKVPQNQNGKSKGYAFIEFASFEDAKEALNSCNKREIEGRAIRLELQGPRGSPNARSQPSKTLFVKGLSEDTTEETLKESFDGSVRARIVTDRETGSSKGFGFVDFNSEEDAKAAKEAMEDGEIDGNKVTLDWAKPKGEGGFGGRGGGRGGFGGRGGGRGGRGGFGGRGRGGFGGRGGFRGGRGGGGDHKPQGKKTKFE"}, "source": "paper PMC5833446", "key": {"[1]": {"biological_target": "nucleolin (human (endogenous in SKBR3)) (UniProt P19338)", "experiment": "proximity ligation; fixed SKBR3 or MDCK cells, rabbit anti-ErbB2 and mouse anti-nucleolin antibodies, Duolink In-Situ PLA; cells untreated or treated with GroA or tyrphostin AG-825 for 2 days"}, "[2]": {"biological_target": "nucleolin (human (endogenous in SKBR3)) (UniProt P19338)", "experiment": "co-IP; nucleolin pulldown (antibodies coupled to anti-IgG agarose beads) from lysates of dissected SKBR3-GFP tumor xenografts, ErbB2 detected by blot; mice untreated or treated with GroA; control pulldown background subtracted"}}, "note": "These are yes or no findings as the source states them, for the method shown. Binding seen in cells or lysates may run through a third protein. Some binding calls cover weakened binding; strength is not graded here.", "data": [{"substance": "ErbB2 (from UniProt P04626 23-1255) (receptor)", "values": [{"measurement": "binding", "setting": "[1]", "value": "binds"}, {"measurement": "binding", "setting": "[2]", "value": "binds"}]}]}
